Here are results for 1 substance from paper PMC5467045.

Chains of the proteins cited; added tags and fusions are not shown.
UniProt P10417: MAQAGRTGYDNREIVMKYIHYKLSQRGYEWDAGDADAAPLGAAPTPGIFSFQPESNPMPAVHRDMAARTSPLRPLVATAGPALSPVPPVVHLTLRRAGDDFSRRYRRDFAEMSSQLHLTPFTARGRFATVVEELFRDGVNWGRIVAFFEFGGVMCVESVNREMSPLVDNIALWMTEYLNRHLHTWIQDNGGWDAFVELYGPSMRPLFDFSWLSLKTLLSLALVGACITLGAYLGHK
UniProt O54918: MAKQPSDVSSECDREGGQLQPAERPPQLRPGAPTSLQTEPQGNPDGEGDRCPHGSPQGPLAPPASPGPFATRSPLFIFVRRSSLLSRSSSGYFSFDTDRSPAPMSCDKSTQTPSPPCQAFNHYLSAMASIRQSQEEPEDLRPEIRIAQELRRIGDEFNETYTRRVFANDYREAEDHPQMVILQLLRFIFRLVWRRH

The target of this assay is Bcl-2 (mouse (endogenous in Eμ-Tcl1 Tg leukemia cells)) (UniProt P10417). Description: co-IP; lysates of Eμ-Tcl1 Tg leukemias cultured for 24 or 36 h with GS-9820 (0.6 μM) or vehicle control; immunoprecipitation with an anti-Bcl-2 mAb or an isotype control; Bim co-immunoprecipitation assessed by western blot.

These are yes or no findings as the source states them, for the method shown. Binding seen in cells or lysates may run through a third protein. Some binding calls cover weakened binding; strength is not graded here.

As to Bim (from UniProt O54918 1-196), the binding result was “binds”.
